No constants are given. Whether binding was seen depends on the method and setting. In cells and extracts the contact can be indirect. Some results given as binding are weak or reduced against the parent protein; the word gives no strength. For part of these data: Sequences can lack the tags named with a protein.

By UniProt entry, the sequences of proteins in these tests, tags left out. Where a name states a change or a piece, a line headed by the entry shows the natural chain unless it says otherwise. Chains listed by the source or under a name are the forms on record and can include a tag or linker.
UniProt O60331: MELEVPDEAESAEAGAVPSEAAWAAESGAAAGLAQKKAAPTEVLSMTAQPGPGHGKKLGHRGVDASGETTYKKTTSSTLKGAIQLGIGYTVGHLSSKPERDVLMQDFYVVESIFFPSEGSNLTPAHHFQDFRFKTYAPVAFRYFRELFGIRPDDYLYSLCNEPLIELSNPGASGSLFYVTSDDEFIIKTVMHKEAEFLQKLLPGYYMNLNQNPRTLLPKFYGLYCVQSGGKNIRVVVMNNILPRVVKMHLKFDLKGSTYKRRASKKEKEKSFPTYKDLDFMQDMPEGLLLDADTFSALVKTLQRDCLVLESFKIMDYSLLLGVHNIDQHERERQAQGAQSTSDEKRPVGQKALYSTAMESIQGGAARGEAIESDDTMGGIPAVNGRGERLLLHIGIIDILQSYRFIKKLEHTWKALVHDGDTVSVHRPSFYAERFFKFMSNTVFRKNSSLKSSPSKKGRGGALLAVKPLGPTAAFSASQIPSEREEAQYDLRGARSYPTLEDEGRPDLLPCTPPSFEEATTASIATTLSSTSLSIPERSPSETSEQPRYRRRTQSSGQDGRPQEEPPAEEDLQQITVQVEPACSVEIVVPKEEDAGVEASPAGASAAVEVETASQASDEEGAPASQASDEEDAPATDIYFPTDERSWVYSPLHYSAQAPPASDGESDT
mCherry-tagged human PIPKIγ-i5 (O60331, form named): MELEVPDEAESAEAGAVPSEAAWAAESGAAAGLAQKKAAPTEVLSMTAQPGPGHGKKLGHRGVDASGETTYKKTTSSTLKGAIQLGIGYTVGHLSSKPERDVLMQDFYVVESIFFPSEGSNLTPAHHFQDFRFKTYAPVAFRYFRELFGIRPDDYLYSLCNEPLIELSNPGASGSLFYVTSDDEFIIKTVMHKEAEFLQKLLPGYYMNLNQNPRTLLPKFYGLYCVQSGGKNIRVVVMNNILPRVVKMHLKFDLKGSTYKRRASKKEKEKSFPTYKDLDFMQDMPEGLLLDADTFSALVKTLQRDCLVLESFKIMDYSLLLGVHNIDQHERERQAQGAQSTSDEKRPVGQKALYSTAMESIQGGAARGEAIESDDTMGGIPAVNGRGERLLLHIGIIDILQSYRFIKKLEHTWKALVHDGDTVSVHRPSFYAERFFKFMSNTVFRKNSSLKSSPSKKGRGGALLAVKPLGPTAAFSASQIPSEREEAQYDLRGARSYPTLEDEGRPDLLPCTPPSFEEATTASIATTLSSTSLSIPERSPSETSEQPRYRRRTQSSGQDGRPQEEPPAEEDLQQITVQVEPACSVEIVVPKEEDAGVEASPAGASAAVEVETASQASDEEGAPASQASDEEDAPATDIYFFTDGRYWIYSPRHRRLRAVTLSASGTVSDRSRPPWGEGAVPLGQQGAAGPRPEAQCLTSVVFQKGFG
UniProt O14578: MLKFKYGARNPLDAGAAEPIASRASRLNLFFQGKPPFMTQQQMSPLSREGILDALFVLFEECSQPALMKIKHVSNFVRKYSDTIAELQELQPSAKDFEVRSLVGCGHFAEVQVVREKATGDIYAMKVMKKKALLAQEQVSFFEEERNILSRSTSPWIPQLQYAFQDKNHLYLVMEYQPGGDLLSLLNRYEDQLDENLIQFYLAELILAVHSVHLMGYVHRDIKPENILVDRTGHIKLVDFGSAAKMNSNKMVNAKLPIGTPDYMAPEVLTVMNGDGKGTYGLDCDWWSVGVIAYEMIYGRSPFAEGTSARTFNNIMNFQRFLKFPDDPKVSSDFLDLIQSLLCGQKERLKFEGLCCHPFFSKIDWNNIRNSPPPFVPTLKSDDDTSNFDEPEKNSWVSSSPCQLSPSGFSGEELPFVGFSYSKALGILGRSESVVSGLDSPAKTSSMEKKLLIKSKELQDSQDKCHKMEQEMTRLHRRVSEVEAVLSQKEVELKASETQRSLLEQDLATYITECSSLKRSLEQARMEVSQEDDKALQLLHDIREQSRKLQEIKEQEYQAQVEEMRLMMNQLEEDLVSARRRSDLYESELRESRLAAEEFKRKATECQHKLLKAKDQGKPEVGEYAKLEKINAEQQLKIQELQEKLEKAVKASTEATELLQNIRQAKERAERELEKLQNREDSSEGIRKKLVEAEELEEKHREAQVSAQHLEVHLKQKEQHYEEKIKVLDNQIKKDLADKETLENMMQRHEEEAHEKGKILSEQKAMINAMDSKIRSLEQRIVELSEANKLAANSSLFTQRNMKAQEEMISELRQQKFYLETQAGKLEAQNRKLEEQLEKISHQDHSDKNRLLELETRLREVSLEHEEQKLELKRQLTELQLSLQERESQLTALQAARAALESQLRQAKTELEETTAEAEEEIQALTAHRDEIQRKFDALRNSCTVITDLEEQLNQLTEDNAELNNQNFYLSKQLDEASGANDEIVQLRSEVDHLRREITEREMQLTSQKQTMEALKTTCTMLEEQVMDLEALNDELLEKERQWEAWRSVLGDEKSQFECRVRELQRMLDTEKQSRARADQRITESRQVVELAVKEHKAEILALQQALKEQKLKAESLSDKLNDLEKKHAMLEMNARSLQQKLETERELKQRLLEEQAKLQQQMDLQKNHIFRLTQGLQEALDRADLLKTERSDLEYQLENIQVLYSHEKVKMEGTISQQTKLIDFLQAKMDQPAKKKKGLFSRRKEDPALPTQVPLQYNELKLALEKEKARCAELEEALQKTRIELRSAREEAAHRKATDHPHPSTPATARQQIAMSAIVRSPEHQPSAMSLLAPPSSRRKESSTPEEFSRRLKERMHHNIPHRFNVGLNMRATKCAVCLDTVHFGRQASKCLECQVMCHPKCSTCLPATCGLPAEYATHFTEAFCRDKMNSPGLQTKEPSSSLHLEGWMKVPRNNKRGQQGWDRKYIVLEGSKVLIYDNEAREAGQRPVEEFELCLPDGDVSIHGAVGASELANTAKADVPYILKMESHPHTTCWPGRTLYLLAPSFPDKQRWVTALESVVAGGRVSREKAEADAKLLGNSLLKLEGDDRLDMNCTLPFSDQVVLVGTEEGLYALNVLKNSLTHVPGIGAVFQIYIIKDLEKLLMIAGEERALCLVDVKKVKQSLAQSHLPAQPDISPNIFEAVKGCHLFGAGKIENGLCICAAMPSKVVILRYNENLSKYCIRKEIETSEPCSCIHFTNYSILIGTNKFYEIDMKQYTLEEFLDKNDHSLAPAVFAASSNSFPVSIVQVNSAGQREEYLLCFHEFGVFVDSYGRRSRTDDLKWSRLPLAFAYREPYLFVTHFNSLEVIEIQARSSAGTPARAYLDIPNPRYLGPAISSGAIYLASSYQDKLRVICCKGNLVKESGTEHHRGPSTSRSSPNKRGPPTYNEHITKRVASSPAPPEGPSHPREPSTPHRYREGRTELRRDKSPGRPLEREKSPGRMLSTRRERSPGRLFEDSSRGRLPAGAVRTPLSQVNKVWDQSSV

These results are taken from paper doi:10.1101/2024.02.22.581562.

Test in all cases: co-IP
The target of experiment [1] is PIPKIγ (endogenous, HeLa) (human (endogenous in HeLa)) (UniProt O60331).
The target in experiment [2] is T1, SEPT2 (endogenous, HeLa) (human (endogenous in HeLa)) (UniProt Q15019).
T1 sequence: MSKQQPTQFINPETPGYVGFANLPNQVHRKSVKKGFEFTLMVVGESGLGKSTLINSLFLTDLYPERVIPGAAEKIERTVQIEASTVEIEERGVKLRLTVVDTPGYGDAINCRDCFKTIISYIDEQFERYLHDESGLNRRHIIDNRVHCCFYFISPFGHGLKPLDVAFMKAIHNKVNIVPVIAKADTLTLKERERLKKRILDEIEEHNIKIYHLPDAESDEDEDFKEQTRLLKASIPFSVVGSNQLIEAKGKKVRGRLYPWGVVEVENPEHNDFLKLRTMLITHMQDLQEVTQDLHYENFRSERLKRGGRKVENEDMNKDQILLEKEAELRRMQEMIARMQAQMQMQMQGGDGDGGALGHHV

The target in experiment [3] is mCherry-tagged human PIPKIγ-i5 (human) (UniProt O60331).

In the case of “citron kinase (from UniProt O14578 1-2027)”, the binding result in experiment [1] and in experiment [2] was “binds” throughout.

B1: myc-tagged SEPT7 (protein, UniProt Q16181 1-437)
chain: MSVSARSAAAEERSVNSSTMVAQQKNLEGYVGFANLPNQVYRKSVKRGFEFTLMVVGESGLGKSTLINSLFLTDLYSPEYPGPSHRIKKTVQVEQSKVLIKEGGVQLLLTIVDTPGFGDAVDNSNCWQPVIDYIDSKFEDYLNAESRVNRRQMPDNRVQCCLYFIAPSGHGLKPLDIEFMKRLHEKVNIIPLIAKADTLTPEECQQFKKQIMKEIQEHKIKIYEFPETDDEEENKLVKKIKDRLPLAVVGSNTIIEVNGKRVRGRQYPWGVAEVENGEHCDFTILRNMLIRTHMQDLKDVTNNVHYENYRSRKLAAVTYNGVDNNKNKGQLTKSPLAQMEEERREHVAKMKKMEMEMEQVFEMKVKEKVQKLKDSEAELQRRHEQMKKNLEAQHKELEEKRRQFEDEKANWEAQQRILEQQNSSRTLEKNKKKGKIF
B1: the binding entry in experiment [3] is on record as “binds”.

B2: myc-tagged SEPT9 (protein, UniProt Q9UHD8 1-586)
chain: MKKSYSGGTRTSSGRLRRLGDSSGPALKRSFEVEEVETPNSTPPRRVQTPLLRATVASSTQKFQDLGVKNSEPSARHVDSLSQRSPKASLRRVELSGPKAAEPVSRRTELSIDISSKQVENAGAIGPSRFGLKRAEVLGHKTPEPAPRRTEITIVKPQESAHRRMEPPASKVPEVPTAPATDAAPKRVEIQMPKPAEAPTAPSPAQTLENSEPAPVSQLQSRLEPKPQPPVAEATPRSQEATEAAPSCVGDMADTPRDAGLKQAPASRNEKAPVDFGYVGIDSILEQMRRKAMKQGFEFNIMVVGQSGLGKSTLINTLFKSKISRKSVQPTSEERIPKTIEIKSITHDIEEKGVRMKLTVIDTPGFGDHINNENCWQPIMKFINDQYEKYLQEEVNINRKKRIPDTRVHCCLYFIPATGHSLRPLDIEFMKRLSKVVNIVPVIAKADTLTLEERVHFKQRITADLLSNGIDVYPQKEFDEDSEDRLVNEKFREMIPFAVVGSDHEYQVNGKRILGRKTKWGTIEVENTTHCEFAYLRDLLIRTHMQNIKDITSSIHFEAYRVKRLNEGSSAMANGMEEKEPEAPEM
Consider B2, for which, in experiment [3], the binding result is on record as “binds”.

B3: anillin (protein, UniProt Q9NQW6 1-1124)
chain: MDPFTEKLLERTRARRENLQRKMAERPTAAPRSMTHAKRARQPLSEASNQQPLSGGEEKSCTKPSPSKKRCSDNTEVEVSNLENKQPVESTSAKSCSPSPVSPQVQPQAADTISDSVAVPASLLGMRRGLNSRLEATAASSVKTRMQKLAEQRRRWDNDDMTDDIPESSLFSPMPSEEKAASPPRPLLSNASATPVGRRGRLANLAATICSWEDDVNHSFAKQNSVQEQPGTACLSKFSSASGASARINSSSVKQEATFCSQRDGDASLNKALSSSADDASLVNASISSSVKATSPVKSTTSITDAKSCEGQNPELLPKTPISPLKTGVSKPIVKSTLSQTVPSKGELSREICLQSQSKDKSTTPGGTGIKPFLERFGERCQEHSKESPARSTPHRTPIITPNTKAIQERLFKQDTSSSTTHLAQQLKQERQKELACLRGRFDKGNIWSAEKGGNSKSKQLETKQETHCQSTPLKKHQGVSKTQSLPVTEKVTENQIPAKNSSTEPKGFTECEMTKSSPLKITLFLEEDKSLKVTSDPKVEQKIEVIREIEMSVDDDDINSSKVINDLFSDVLEEGELDMEKSQEEMDQALAESSEEQEDALNISSMSLLAPLAQTVGVVSPESLVSTPRLELKDTSRSDESPKPGKFQRTRVPRAESGDSLGSEDRDLLYSIDAYRSQRFKETERPSIKQVIVRKEDVTSKLDEKNNAFPCQVNIKQKMQELNNEINMQQTVIYQASQALNCCVDEEHGKGSLEEAEAERLLLIATGKRTLLIDELNKLKNEGPQRKNKASPQSEFMPSKGSVTLSEIRLPLKADFVCSTVQKPDAANYYYLIILKAGAENMVATPLASTSNSLNGDALTFTTTFTLQDVSNDFEINIEVYSLVQKKDPSGLDKKKKTSKSKAITPKRLLTSITTKSNIHSSVMASPGGLSAVRTSNFALVGSYTLSLSSVGNTKFVLDKVPFLSSLEGHIYLKIKCQVNSSVEERGFLTIFEDVSGFGAWHRRWCVLSGNCISYWTYPDDEKRKNPIGRINLANCTSRQIEPANREFCARRNTFELITVRPQREDDRETLVSQCRDTLCVTKNWLSADTKEERDLWMQKLNQVLVDIRLWQPDACYKPIGKP
For B3, the binding entry in experiment [1] is recorded as “no binding”; in experiment [2] it was “binds”.

B4: myc-tagged SEPT5 (protein, UniProt Q99719 1-369)
chain: MSTGLRYKSKLATPEDKQDIDKQYVGFATLPNQVHRKSVKKGFDFTLMVAGESGLGKSTLVHSLFLTDLYKDRKLLSAEERISQTVEILKHTVDIEEKGVKLKLTIVDTPGFGDAVNNTECWKPITDYVDQQFEQYFRDESGLNRKNIQDNRVHCCLYFISPFGHGLRPVDVGFMKALHEKVNIVPLIAKADCLVPSEIRKLKERIREEIDKFGIHVYQFPECDSDEDEDFKQQDRELKESAPFAVIGSNTVVEAKGQRVRGRLYPWGIVEVENQAHCDFVKLRNMLIRTHMHDLKDVTCDVHYENYRAHCIQQMTSKLTQDSRMESPIPILPLPTPDAETEKLIRMKDEELRRMQEMLQRMKQQMQDQ
Take B4: in experiment [3], the binding result is recorded as “binds”.

B5: mitotic kinesin-like protein 1 (MKLP1) (protein, UniProt Q02241 1-960)
chain: MKSARAKTPRKPTVKKGSQTNLKDPVGVYCRVRPLGFPDQECCIEVINNTTVQLHTPEGYRLNRNGDYKETQYSFKQVFGTHTTQKELFDVVANPLVNDLIHGKNGLLFTYGVTGSGKTHTMTGSPGEGGLLPRCLDMIFNSIGSFQAKRYVFKSNDRNSMDIQCEVDALLERQKREAMPNPKTSSSKRQVDPEFADMITVQEFCKAEEVDEDSVYGVFVSYIEIYNNYIYDLLEEVPFDPIKPKPPQSKLLREDKNHNMYVAGCTEVEVKSTEEAFEVFWRGQKKRRIANTHLNRESSRSHSVFNIKLVQAPLDADGDNVLQEKEQITISQLSLVDLAGSERTNRTRAEGNRLREAGNINQSLMTLRTCMDVLRENQMYGTNKMVPYRDSKLTHLFKNYFDGEGKVRMIVCVNPKAEDYEENLQVMRFAEVTQEVEVARPVDKAICGLTPGRRYRNQPRGPVGNEPLVTDVVLQSFPPLPSCEILDINDEQTLPRLIEALEKRHNLRQMMIDEFNKQSNAFKALLQEFDNAVLSKENHMQGKLNEKEKMISGQKLEIERLEKKNKTLEYKIEILEKTTTIYEEDKRNLQQELETQNQKLQRQFSDKRRLEARLQGMVTETTMKWEKECERRVAAKQLEMQNKLWVKDEKLKQLKAIVTEPKTEKPERPSRERDREKVTQRSVSPSPVPLSSNYIAQISNGQQLMSQPQLHRRSNSCSSISVASCISEWEQKIPTYNTPLKVTSIARRRQQEPGQSKTCIVSDRRRGMYWTEGREVVPTFRNEIEIEEDHCGRLLFQPDQNAPPIRLRHRRSRSAGDRWVDHKPASNMQTETVMQPHVPHAITVSVANEKALAKCEKYMLTHQELASDGEIETKLIKGDIYKTRGGGQSVQFTDIETLKQESPNGSRKRRSSTVAPAQPDGAESEWTDVETRCSVAVEMRAGSQLGPGYQHHAQPKRKKP
In the case of B5, the binding entry in experiment [1] and in experiment [2] was “binds” in each case.
